{"source": "PubChem BioAssay AID504804 | Drosophila RNAi Screening Center | 2011", "purpose": "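Knock-downs shielding fly cells from apoptosis caused by DNA damage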 (primary screen)", "cell system": "Drosophila Kc cells", "knock-down reagent": "long dsRNA against Drosophila genes, 0.5 µg dsRNA per well", "duration": "96 h (48 h knock-down, then 48 h drug)", "treatment": "doxorubicin 5 µg/ml for 48 h, added 48 h after dsRNA", "measured": "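Viability measured as cellular ATP by luminescence after 48 h knock-down then 48 h doxorubicin at 5 µg/ml; unnormalised plate counts for each replicate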", "direction": "raw ATP luminescence: higher = more viable cells, protection from doxorubicin", "rule for the call": "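z-score of 2 or more over plate mean in both duplicates, retained only when retests and separate dsRNAs confirm the protection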", "note": "The deposit covers about 19,000 reagents; below is a random part of those that have a named target and a result. Of all reagents, 47 (0.25%) were called active. 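Signals are raw, not normalised; exact z-scores behind calls not deposited; actives needed confirmation, so some wells reaching 2 SD are inactive.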 The numbers tell different reagents against one gene apart."}
{"gene knocked down": "CG9265", "dsRNA no.": 1, "raw ATP luminescence, replicate 1": 48473, "raw ATP luminescence, replicate 2": 64603, "call": "inactive"}
{"gene knocked down": "CG9265", "dsRNA no.": 2, "raw ATP luminescence, replicate 1": 50603, "raw ATP luminescence, replicate 2": 42800, "call": "inactive"}
{"gene knocked down": "Saf-B", "dsRNA no.": 1, "raw ATP luminescence, replicate 1": 38973, "raw ATP luminescence, replicate 2": 45090, "call": "inactive"}
{"gene knocked down": "Cka", "dsRNA no.": 1, "raw ATP luminescence, replicate 1": 42520, "raw ATP luminescence, replicate 2": 86530, "call": "inactive"}
{"gene knocked down": "CG1924", "dsRNA no.": 1, "raw ATP luminescence, replicate 1": 3.94e5, "raw ATP luminescence, replicate 2": 3.73e5, "call": "inactive"}
{"gene knocked down": "CG14570", "dsRNA no.": 1, "raw ATP luminescence, replicate 1": 63977, "raw ATP luminescence, replicate 2": 61303, "call": "inactive"}
{"gene knocked down": "CG31717", "dsRNA no.": 1, "raw ATP luminescence, replicate 1": 3.01e5, "raw ATP luminescence, replicate 2": 3.06e5, "call": "inactive"}
{"gene knocked down": "CCHa2-R", "dsRNA no.": 1, "raw ATP luminescence, replicate 1": 65910, "raw ATP luminescence, replicate 2": 84097, "call": "inactive"}
{"gene knocked down": "CCHa2-R", "dsRNA no.": 2, "raw ATP luminescence, replicate 1": 39570, "raw ATP luminescence, replicate 2": 46730, "call": "inactive"}
{"gene knocked down": "CCHa2-R", "dsRNA no.": 3, "raw ATP luminescence, replicate 1": 47277, "raw ATP luminescence, replicate 2": 41177, "call": "inactive"}
{"gene knocked down": "TTLL5", "dsRNA no.": 1, "raw ATP luminescence, replicate 1": 33840, "raw ATP luminescence, replicate 2": 46550, "call": "inactive"}
{"gene knocked down": "Naa80", "dsRNA no.": 1, "raw ATP luminescence, replicate 1": 56357, "raw ATP luminescence, replicate 2": 54387, "call": "inactive"}
{"gene knocked down": "Vps13D", "dsRNA no.": 1, "raw ATP luminescence, replicate 1": 78837, "raw ATP luminescence, replicate 2": 55277, "call": "inactive"}
{"gene knocked down": "Vps13D", "dsRNA no.": 2, "raw ATP luminescence, replicate 1": 81573, "raw ATP luminescence, replicate 2": 65340, "call": "inactive"}
{"gene knocked down": "fuss", "dsRNA no.": 1, "raw ATP luminescence, replicate 1": 62700, "raw ATP luminescence, replicate 2": 61170, "call": "inactive"}
{"gene knocked down": "Kdm5", "dsRNA no.": 1, "raw ATP luminescence, replicate 1": 79123, "raw ATP luminescence, replicate 2": 73360, "call": "inactive"}
{"gene knocked down": "bin", "dsRNA no.": 1, "raw ATP luminescence, replicate 1": 65160, "raw ATP luminescence, replicate 2": 77840, "call": "inactive"}
{"gene knocked down": "CG31886", "dsRNA no.": 1, "raw ATP luminescence, replicate 1": 61913, "raw ATP luminescence, replicate 2": 58310, "call": "inactive"}
{"gene knocked down": "Fpps", "dsRNA no.": 1, "raw ATP luminescence, replicate 1": 57963, "raw ATP luminescence, replicate 2": 47993, "call": "inactive"}
{"gene knocked down": "CheB38c", "dsRNA no.": 1, "raw ATP luminescence, replicate 1": 59740, "raw ATP luminescence, replicate 2": 53813, "call": "inactive"}
{"gene knocked down": "CG31784", "dsRNA no.": 1, "raw ATP luminescence, replicate 1": 2.90e5, "raw ATP luminescence, replicate 2": 2.51e5, "call": "inactive"}
{"gene knocked down": "CG4983", "dsRNA no.": 1, "raw ATP luminescence, replicate 1": 79870, "raw ATP luminescence, replicate 2": 67077, "call": "inactive"}
{"gene knocked down": "CG12237", "dsRNA no.": 1, "raw ATP luminescence, replicate 1": 2.16e5, "raw ATP luminescence, replicate 2": 1.98e5, "call": "inactive"}
{"gene knocked down": "CG13579", "dsRNA no.": 1, "raw ATP luminescence, replicate 1": 46257, "raw ATP luminescence, replicate 2": 54780, "call": "inactive"}
{"gene knocked down": "dock", "dsRNA no.": 1, "raw ATP luminescence, replicate 1": 1.30e5, "raw ATP luminescence, replicate 2": 59177, "call": "inactive"}
{"gene knocked down": "Tsp42Ej", "dsRNA no.": 1, "raw ATP luminescence, replicate 1": 62820, "raw ATP luminescence, replicate 2": 73870, "call": "inactive"}
{"gene knocked down": "CG17264", "dsRNA no.": 1, "raw ATP luminescence, replicate 1": 97017, "raw ATP luminescence, replicate 2": 61650, "call": "inactive"}
{"gene knocked down": "Grip75", "dsRNA no.": 1, "raw ATP luminescence, replicate 1": 46327, "raw ATP luminescence, replicate 2": 90400, "call": "inactive"}
{"gene knocked down": "janA", "dsRNA no.": 1, "raw ATP luminescence, replicate 1": 53670, "raw ATP luminescence, replicate 2": 52970, "call": "inactive"}
{"gene knocked down": "Snap29", "dsRNA no.": 1, "raw ATP luminescence, replicate 1": 39593, "raw ATP luminescence, replicate 2": 53353, "call": "inactive"}
{"gene knocked down": "CG4036", "dsRNA no.": 1, "raw ATP luminescence, replicate 1": 75497, "raw ATP luminescence, replicate 2": 65323, "call": "inactive"}
{"gene knocked down": "Zyx", "dsRNA no.": 1, "raw ATP luminescence, replicate 1": 1.66e5, "raw ATP luminescence, replicate 2": 1.72e5, "call": "inactive"}
{"gene knocked down": "Sec10", "dsRNA no.": 1, "raw ATP luminescence, replicate 1": 39787, "raw ATP luminescence, replicate 2": 46380, "call": "inactive"}
{"gene knocked down": "Spg7", "dsRNA no.": 1, "raw ATP luminescence, replicate 1": 48880, "raw ATP luminescence, replicate 2": 58040, "call": "inactive"}
{"gene knocked down": "ppk19", "dsRNA no.": 1, "raw ATP luminescence, replicate 1": 45990, "raw ATP luminescence, replicate 2": 33520, "call": "inactive"}
{"gene knocked down": "Hnf4", "dsRNA no.": 1, "raw ATP luminescence, replicate 1": 2.75e5, "raw ATP luminescence, replicate 2": 3.02e5, "call": "inactive"}
{"gene knocked down": "Hnf4", "dsRNA no.": 2, "raw ATP luminescence, replicate 1": 1.33e5, "raw ATP luminescence, replicate 2": 1.75e5, "call": "inactive"}

5 entries from above, showing only “raw ATP luminescence, replicate 2”:
CG12237 = 1.98e5
CG13579 = 54780
dock = 59177
Tsp42Ej = 73870
CG17264 = 61650
